Record: PubChem BioAssay AID686937 (Drosophila RNAi Screening Center, 2013)

- Assay: 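Knock-downs that reduce output of a secreted reporter enzyme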 (primary screen)
- System: Drosophila S2 cells expressing secreted horseradish peroxidase
- Knock-down reagent: long dsRNA against Drosophila genes
- Time to read-out: about 5.5 days (5 days dsRNA, then 12 h reporter induction)
- Treatment: reporter expression induced after 5 days of dsRNA, read 12 h later; inducer not stated
- Measurement: 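Chemiluminescent measurement of peroxidase in the medium 12 h after reporter induction, following 5 days of dsRNA, given as a z-score per plate; higher means more secretion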
- Reading the numbers: z-score: higher = more reporter secreted into medium
In all, the deposit lists about 23,000 reagents; this is a random part of those with a known target gene and a result. 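Reduced-secretion tags in replicate 1 do not always agree with the z-scores; no criterion for assigning the tags was given.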 A plus sign joins genes that one reagent is predicted to hit. Further read-outs or replicates are left out here. The record does not give: the amount of reagent.

The first 2 entries, ahead of the listing:
no.	gene knocked down	dsRNA	z-score, replicate 1
1	eff	DRSC16940	-2.89
2	CG42525	DRSC08026	0.18

Main list, from the start:
no.	gene knocked down	dsRNA	z-score, replicate 1
1	eff	DRSC16940	-2.89
2	CG42525	DRSC08026	0.18
3	Sec3	DRSC10384	0.15
4	Trxr1	DRSC18668	0.3
5	Trxr1	DRSC22293	-1.08
6	CG15375	DRSC18045	0.59
7	CG12948	DRSC14576	0.27
8	phu	DRSC16390	0.22
9	verm	DRSC11038	0.26
10	PGRP-SC1a	DRSC06482	0.2
11	dod	DRSC20577	-0.12
12	vig	DRSC03630	0.5
13	vig	DRSC03631	0.48
14	vig	DRSC21672	0.06
15	CG9822	DRSC04568	-0.26
16	CG4456 + Hsp22	DRSC11187	0.32
17	CG4456 + Hsp22	DRSC11192	0.43
18	GstD1	DRSC16683	0.05
19	CG12851	DRSC04131	0.2
20	Phm	DRSC04639	0.22
21	CG7483	DRSC16249	0.38
22	CG7483	DRSC22432	2.54
23	CG10359	DRSC08156	0.14
24	TwdlO	DRSC16043	0.41
25	CG7655	DRSC16275	0.29
26	scramb1	DRSC09724	0.51
27	scramb1	DRSC10667	0.44
28	scramb1	DRSC10668	0.48
29	robl	DRSC07674	0.57
30	CG14913	DRSC02397	0.4
31	Dnz1	DRSC03317	0.31
32	CG31211	DRSC14953	-0.47
33	CG31211	DRSC15344	0.48
34	CG31211	DRSC21478	-0.62
